Our source for the step yield values is US4183909A (Richter Gedeon Vegyeszeti Gyar Rt., priority 1976, dated 1980).

HELM strings list residues between dots; [ac] is acetyl, [am] amide, other brackets name non-standard units. Square brackets hold non-standard residues; d marks the D form. * marks the point of attachment. dPhg = N[C@@H](C(=O)O)c1ccccc1; Phg = N[C@H](C(=O)O)c1ccccc1; Nle = CCCC[C@H](N)C(=O)O; Nva = CCC[C@H](N)C(=O)O; Boc = CC(C)(C)OC(=O)*

The first data set is described as follows: general procedure: solution-phase peptide synthesis; active esters (BOC-Trp-OSu, BOC-OGly-OPCP, BOC-D-OAla-OPCP) with triethylamine i. The following applies: coupling step.
Take Boc-WMD[Phg]-NH2: the step yield stood at 97.9%.
Still for that read-out and setting: with BOC-Trp-Met-As-D-Phg-NH2 the figure was 95.8%.
As to “PEPTIDE1{[Boc].[D-OAla].W.L.D.[L-Phg].[am]}$$$$V2.0”, the step yield turned out to be 34.2%.
With Boc-W[Nva]D[dPhg]-NH2, the step yield is recorded as 66.2%.
For the substance “PEPTIDE1{[Boc].[D-OAla].W.M.D.[D-Phg].[am]}$$$$V2.0”, the step yield was 53.5%.
For the substance BOC-Trp-D-Ade-L-Asp-D-Phg-NH2, the step yield was 80.4%.
On the same count and under the same terms, with Boc-W[Nle]D[dPhg]-NH2 the figure was 97.5%; with BOC-OGly-Trp-Leu-Asp-L-Phg-NH2, 40.5%; with “PEPTIDE1{[Boc].[D-OAla].W.M.D.[L-Phg].[am]}$$$$V2.0”, 56%.
Still for that read-out and setting: next, “PEPTIDE1{[Boc].[D-OAla].W.L.D.[D-Phg].[am]}$$$$V2.0”: 56%.
In turn, Boc-WLD[Phg]-NH2 came in with a step yield of 65%.
Turning to BOC-OGly-Trp-Met-Asp-D-Phg-NH2, the step yield came to 41.4%.
BOC-Trp(For)-L-Ade-Asp-D-Phg-NH2: the step yield is recorded as 92.0%.
BOC-OGly-Trp-Met-Asp-L-Phg-NH2 had a step yield of 37.2%.
For the substance Boc-WLD[dPhg]-NH2, the step yield is recorded as 72.8%.
BOC-OGly-Trp-Leu-Asp-D-Phg-NH2 yielded a step yield of 31.3%.

Still in this data set, the particulars now being: late stage modification step.
H-Trp-Leu-Asp-L-PHg-NH2 came in with a step yield of 61%.
Turning to H-WMD[Phg]-NH2, the step yield is listed as 76.5%.
The substance H-WLD[dPhg]-NH2 yielded a step yield of 93.7%.
On the same count and under the same terms, with H-WMD[dPhg]-NH2 the figure was 78%.

Still in this data set, the particulars now being: late stage modification step, HCl.
H-Trp-L-Ade-Asp-D-Phg-NH2.HCl came in with a step yield of 98%.
H-Trp-D-Ade-Asp-D-Phg-NH2.HCl had a step yield of 93.8%.
H-Trp-Nva-Asp-D-Phg-NH2.HCl had a step yield of 99.0%.
H-Trp-Nle-Asp-D-Phg-NH2.HCl: the step yield was 99.0%.
